Measurements from article PMC9342608, “The OsEIL1‐OsERF115‐target gene regulatory module controls grain size and weight in rice”.
Construct, isoform or probe ends are uncertain for at least one entry.

System: MBP-OsERF115 (Oryza sativa (japonica cv. Nipponbare))
Assay: EMSA
Conditions: EMSA/Gel-Shift Binding Buffer (Beyotime GS005), 30 min at room temperature, 6% native PAGE; salt and pH not stated; recombinant protein; protein details: MBP, Ni-NTA purified (pMCSG7); label: 5' biotin on strand 1

| Sequence | binding result |
| --- | --- |
| GTATGTATCTACGGTGAGGCGGCGGCGGCGGAGGAGGAGGAGGA (double strand) [OsGW2 probe (GCC box)] | binds |
| GAGGTATTGTTGGGATTCGCCGCCTGCTGCTCGTCGTCGTCG (double strand) [OsGS6 probe (GCC box)] | binds |
